# Source: the supplement of paper PMC4749390
# Counter-ions that a name gives are not always drawn. Some of the results follow. This data set is noisy: repeats of one test often differ as much as different tests do.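 JEG3 cells stably express tetracycline-inducible wild-type human LRH-1, a highly sumoylated nuclear receptor. SUMO-sensitive transcripts APOC3 and MUC1, increased by SUMO-deficient LRH-1 or UBC9 knockdown, were quantified by RT-qPCR relative to TBP and DMSO controls. Primary hits had robust Z-scores above +2 or below -2, before toxicity and TBP filtering.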
# Tested on: JEG3 expressing hLRH-1
# Assay: MUC1 transcript change (ddCt vs TBP and DMSO), Z-score over library; higher = higher MUC1 expression
# Details: 10 µM; time (hr): 24
row,SMILES,MUC1 transcript change (Z-score)
1,CCOC(=O)[N-]c1c[n+](N2CCOCC2)no1 [molsidomine],-0.622
2,c1ccc2[nH]c(-c3cscn3)nc2c1 [thiabendazole],0.325
3,CC(CCC(=O)O)[C@H]1CCC2C3C(=O)C[C@@H]4CC(=O)CC[C@]4(C)C3CC(=O)[C@@]21C (some centres not stated) [dehydrocholic acid],0.865
4,CCCCC1(COC(=O)CCC(=O)O)C(=O)N(c2ccccc2)N(c2ccccc2)C1=O [suxibuzone],-0.528
5,CN(C)c1nc(N(C)C)nc(N(C)C)n1 [altretamine],-1.05
6,C[C@]12C=CC(=O)C=C1CCC1C2[C@@H](O)C[C@@]2(C)C1CC[C@]2(O)C(=O)COP(=O)(O)O (some centres not stated) [prednisolone sodium phosphate],0.706
7,O=C(O)CCC(=O)Nc1ccc(S(=O)(=O)Nc2nccs2)cc1 [succinylsulfathiazole],-0.149
8,O=C1c2ccccc2C(=O)C1c1ccc(Cl)cc1 [chlorindione],0.571
9,NNC(=O)c1ccncc1 [isoniazid],1.2
10,Nc1cc(C(Cl)=C(Cl)Cl)c(S(N)(=O)=O)cc1S(N)(=O)=O [clorsulon],0.487
11,COc1cccc(OC)c1C(=O)N[C@@H]1C(=O)N2[C@@H]1SC(C)(C)[C@@H]2C(=O)O [methicillin sodium],0.476
12,N[C@@H](COP(=O)(O)O)C(=O)O [O-Phospho-L-serine],-0.434
13,CN(C)CCc1c[nH]c2ccc(CS(=O)(=O)N3CCCC3)cc12 [almotriptan],-1.1
14,[O-][n+]1cccc(CO)c1 [mepiroxol],-0.249
15,NC(=O)c1ccc[n+]([C@@H]2O[C@H](COP(=O)([O-])OP(=O)(O)OC[C@H]3O[C@@H](n4cnc5c(N)ncnc54)[C@H](O)[C@@H]3O)[C@@H](O)[C@H]2O)c1 [nadide],0.000285
16,N[C@@H](Cc1ccc(O)c(O)c1)C(=O)O [levodopa],-0.314
17,CO[C@H]1C[C@H](O[C@@H]2/C(C)=C/C[C@@H]3C[C@@H](C[C@]4(CC[C@H](C)[C@@H](C5CCCCC5)O4)O3)OC(=O)[C@@H]3C=C(C)/C(=N/O)[C@H]4OC/C(=C\C=C\[C@@H]2C)[C@]43O)O[C@@H](C)[C@@H]1O [selamectin],0.119
18,Oc1ccnc(O)n1 [uracil],1.08
19,O=C(O)C[C@H](O)C[C@H](O)/C=C/c1c(C2CC2)nc2ccccc2c1-c1ccc(F)cc1 [pitavastatin calcium],-0.209
20,C=C(C)C1CC=C(C)CC1 (stereo not drawn) [d-limonene],0.318
21,CCN(CC)CCNC(=O)c1cc(Br)c(N)cc1OC [bromopride],-0.401
22,O=[N+]([O-])c1ccc(O)c2ncccc12 [nitroxoline],1.22
23,COc1c2ccoc2cc2oc(=O)ccc12 [bergapten],0.284
24,CC1(C)O[C@]2(C)CC[C@H]1CC2 [eucalyptol],-0.0475
25,CN(C)CCN(Cc1ccccc1)c1ccccn1 [Tripelennamine hydrochloride],0.443
26,CN1CCN(c2c(F)cc3c(=O)c(C(=O)O)cn4c3c2SCC4)CC1 [rufloxacin hydrochloride],0.278

# Reprinted at random: four compounds from above, in no set order.
row,SMILES,MUC1 transcript change (Z-score)
4,CCCCC1(COC(=O)CCC(=O)O)C(=O)N(c2ccccc2)N(c2ccccc2)C1=O [suxibuzone],-0.528
12,N[C@@H](COP(=O)(O)O)C(=O)O [O-Phospho-L-serine],-0.434
18,Oc1ccnc(O)n1 [uracil],1.08
13,CN(C)CCc1c[nH]c2ccc(CS(=O)(=O)N3CCCC3)cc12 [almotriptan],-1.1

# Carrying on.

row,SMILES,MUC1 transcript change (Z-score)
1,COCCCOc1ccnc(CS(=O)c2nc3ccccc3[nH]2)c1C (configuration not stated) [rabeprazole sodium],0.819
2,CC(C)NNC(=O)c1ccncc1 [Iproniazid phosphate],0.682
3,OCCc1ccccc1 [phenylethyl alcohol],0.179
4,C[C@H]1c2cccc(O)c2C(=O)C2=C(O)[C@]3(O)C(O)=C(C(N)=O)C(=O)[C@@H](N(C)C)[C@@H]3[C@@H](O)[C@@H]21 [doxycycline hydrochloride],0.00319
5,Cn1nnc2c(C(N)=O)ncn2c1=O [temozolamide],-0.358
6,CN1CCC(OC(c2ccccc2)c2ccccc2)CC1 [diphenylpyraline hydrochloride],-0.783
7,CN(C)CCCN1c2ccccc2Sc2ccc(Cl)cc21 [Chlorpromazine hydrochloride],-0.108
8,Nc1ccc(C(=O)O)c(O)c1 [sodium p-aminosalicylate],0.955
9,CCCCOc1cc(C(=O)OCCN(CC)CC)ccc1N [benoxinate hydrochloride],-0.153
10,O=C(O)c1ccccc1O [sodium salicylate],0.229
11,CS(=O)(=O)Nc1ccc([N+](=O)[O-])cc1Oc1ccccc1 [nimesulide],-1.01
12,C1CCC(C(CC2CCCCN2)C2CCCCC2)CC1 (configuration not stated) [perhexiline maleate],0.321
13,COC(=O)[C@H](c1ccccc1Cl)N1CCc2sccc2C1 [clopidogrel sulfate],0.3
14,CCn1nc(C(=O)O)c(=O)c2cc3c(cc21)OCO3 [cinoxacin],-1.57
15,CCC(=O)O[C@]1(C(=O)SCF)[C@H](C)C[C@H]2[C@@H]3C[C@H](F)C4=CC(=O)C=C[C@]4(C)[C@@]3(F)[C@@H](O)C[C@@]21C [fluticasone propionate],-0.3
16,CCCNC(C)(C)COC(=O)c1ccccc1 [meprylcaine hydrochloride],0.343
17,CC(=O)c1ccc(S(=O)(=O)NC(=O)NC2CCCCC2)cc1 [Acetohexamide],0.608
18,O=C(O)CN1C(=O)c2cccc3cccc(c23)C1=O [alrestatin],-0.0889
19,NC(Cc1ccc(Cl)cc1)C(=O)O (racemic) [(±)-p-Chlorophenylalanine],-0.731
20,Cc1onc(-c2ccccc2Cl)c1C(=O)N[C@@H]1C(=O)N2[C@@H]1SC(C)(C)[C@@H]2C(=O)O [cloxacillin sodium],-0.0437
21,CCC1(C)CC(=O)NC1=O (configuration not stated) [ethosuximide],0.372
22,NC[C@@H]1O[C@H](O[C@H]2[C@@H](O)[C@H](O[C@@H]3[C@@H](O)[C@H](N)C[C@H](N)[C@H]3O[C@H]3O[C@H](CN)[C@@H](O)[C@H](O)[C@H]3N)O[C@@H]2CO)[C@H](N)[C@@H](O)[C@@H]1O [neomycin sulfate],0.161
23,O=C1c2c(O)ccc(O)c2C(=O)c2c(NCCNCCO)ccc(NCCNCCO)c21 [mitoxanthrone hydrochloride],2.46
24,CC(=O)c1ccc2c(c1)N(CCCN(C)C)c1ccccc1S2 [acepromazine maleate],-0.647
25,Oc1c(Cl)cc(Cl)cc1Sc1cc(Cl)cc(Cl)c1O [bithionol],-0.0873
26,NS(=O)(=O)c1cc2c(cc1C(F)(F)F)NCNS2(=O)=O [hydroflumethiazide],0.118

row,SMILES,MUC1 transcript change (Z-score)
1,CCn1cc(C(=O)O)c(=O)c2cnc(N3CCCC3)nc21 [piromidic acid],0.275
2,CC(O)(CC(=O)O)CC(=O)O [meglutol],-0.331
3,N=C(N)/N=C(\N)N1CCOCC1 [moroxydine hydrochloride],-0.0833
4,CCN(CC)C(=O)c1ccc(O)c(OC)c1 [ethamivan],0.539
5,CC(=O)[C@@]1(O)CC[C@H]2[C@@H]3CCC4=CC(=O)CC[C@]4(C)[C@H]3CC[C@@]21C [hydroxyprogesterone],-0.622
6,CCOC(=O)[C@H](CCc1ccccc1)N[C@@H](C)C(=O)N1Cc2ccccc2C[C@H]1C(=O)O [quinapril hydrochloride],-0.119
7,CCC(C)n1ncn(-c2ccc(N3CCN(c4ccc(OC[C@H]5CO[C@](Cn6cncn6)(c6ccc(Cl)cc6Cl)O5)cc4)CC3)cc2)c1=O (some centres not stated) [itraconazole],-0.0936
8,CNCCCC12CCC(c3ccccc31)c1ccccc12 [maprotiline hydrochloride],0.497
9,CCC1NC(=O)c2cc(S(N)(=O)=O)c(Cl)cc2N1 (configuration not stated) [quinethazone],-0.811
10,O=C1NCC2(CCN(CCc3ccccc3)CC2)O1 [fenspiride hydrochloride],-0.104
11,O=C(O)Cc1cc(I)c(Oc2ccc(O)c(I)c2)c(I)c1 [tiratricol],-0.313
12,Cc1cc(-c2ccccc2)nnc1NCCN1CCOCC1 [minaprine hydrochloride],1.02
13,CCCOc1ccc2[nH]c(NC(=O)OC)nc2c1 [oxybendazole],-0.988
14,Cc1cc2nc3c(=O)[nH]c(=O)nc-3n(C[C@H](O)[C@H](O)[C@H](O)CO)c2cc1C [riboflavin],0.00461
15,C=CCc1ccccc1OCC(O)CNC(C)C (configuration not stated) [Alprenolol hydrochloride],0.364
16,CO[C@H]1/C=C/O[C@@]2(C)Oc3c(C)c(O)c4c(O)c(c5c(nc6cc(C)ccn65)c4c3C2=O)NC(=O)/C(C)=C\C=C\[C@H](C)[C@H](O)[C@@H](C)[C@@H](O)[C@@H](C)[C@H](OC(C)=O)[C@@H]1C [rifaximin],-1.16
17,C[C@]12C=CC(=O)N[C@@H]1CC[C@@H]1[C@@H]2CC[C@]2(C)[C@@H](C(=O)Nc3cc(C(F)(F)F)ccc3C(F)(F)F)CC[C@@H]12 [dutasteride],0.258
18,CCCNC(=O)NS(=O)(=O)c1ccc(Cl)cc1 [Chlorpropamide],-1.14
19,Cc1cc(O)c(C(=O)N[C@@H](C(=O)N[C@@H]2C(=O)N3C(C(=O)O)=C(CSc4nnnn4C)CS[C@H]23)c2ccc(O)cc2)cn1 [cefpiramide],-0.53
20,C(=C\N1CCN(C(c2ccccc2)c2ccccc2)CC1)/Cc1ccccc1 [cinnarazine],-0.79
21,NCCCCCC(=O)O [aminocaproic acid],-0.517
22,Cc1ccnc2c1NC(=O)c1cccnc1N2C1CC1 [nevirapine],-0.515
23,CNCCc1ccccn1 [betahistine hydrochloride],-0.985
24,N#C[C@@H]1C[C@@H]2C[C@@H]2N1C(=O)[C@@H](N)[C@]12CC3CC(C[C@@](O)(C3)C1)C2 [saxagliptin],1.34
25,CO/N=C(/C(=O)N[C@@H]1C(=O)N2C(C(=O)OCSC(=O)c3ccco3)=CCS[C@H]12)c1csc(N)n1 [ceftiofur hydrochloride],0.459
